Experiments:
DLD1 NRF2-GOF [1] = conditions: 72 h; CellTiter-Glo viability
How it was run: (§1)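 Library compounds were tested in 384-well plates at 5 concentrations covering a 10,000-fold span against isogenic DLD1 colorectal cancer cells, NRF2 wild-type or CRISPR gain-of-function, grown in DMEM with 10% FBS. Viability was measured at 72 h with CellTiter-Glo on a Pherastar FS reader, relative to vehicle wells and 100-μM positive-control wells. EC50 and drug sensitivity score (normalised area under the curve) were derived from logistic dose-response curves fitted with four parameters.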

DLD1 NRF2-GOF [2] = assay: drug sensitivity score (DSS) cytotoxicity (DSS score); higher = more toxic; extreme values may be limits of the assay; conditions: 72 h; CellTox Green cytotoxicity
How it was run: (§2)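 TC50 and drug sensitivity score, a normalised area under the curve, were derived by logistic dose-response fits of cytotoxicity. The cells were an isogenic DLD1 colorectal cancer pair, NRF2 wild-type or CRISPR-edited, kept in DMEM with 10% FBS. Compounds were tested in 384-well plates at 5 concentrations across a 10,000-fold range for 72 h. Readings with CellTox Green on a Pherastar FS reader were normalised to vehicle wells and 100-μM positive-control wells.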

DLD1 NRF2-WT = assay: as above; conditions: 72 h; CellTox Green cytotoxicity
How it was run: as §2

DLD1 NRF2-GOF [3] = assay: drug sensitivity score (DSS) viability (DSS score); higher = more sensitive; extreme values may be limits of the assay; conditions: 72 h; CellTiter-Glo viability
How it was run: as §1

C[C@@H]1C[C@H](N)C[C@H](c2ccncc2NC(=O)c2ccc(F)c(-c3c(F)cccc3F)n2)C1 [PIM-447]
EC50 viability (DLD1 NRF2-GOF [1]): 4.18 µM | drug sensitivity score (DLD1 NRF2-GOF [2]): 0 | drug sensitivity score (DLD1 NRF2-WT): 0 | drug sensitivity score (DLD1 NRF2-GOF [3]): 2.3

— the supplement of paper PMC7600603
